Results as given in patent US20060142397A1, “Use of a pparalpha agonist and metormin for decreasing the serum triglycerides” (priority 2002, published 2006).
At least one compound was matched to its structure with a doubt left.

System: db/db mice
Conditions: 14 days treatment
Procedure: Studies were designed to evaluate the effects of fenofibrate, a PPARα agonist, and metformin as a combination therapy, on triglycerides level in db/db mice.
Male 11/12 weeks old […] J Rj-db (db/db) mice (Janvier, France) were housed in a temperature (19.5-24.5° C.), relative humidity (40-70%) and 12-12 h light-dark cycle (light 7:00 a.m. to 7:00 p.m.)-controlled room, with ad libitum access to filtered (0.22 μm) tap-water and irradiated pelleted laboratory chow (ref. A04, U.A.R., France) throughout the study. They were housed 5 per cage and a 21-day acclimatization period was observed.
The mice were treated during 14 consecutive days (T1 to T14), with morning and afternoon gavages with the various treatments as described below.
At T15, the mice were weighed and blood samples collected without anticoagulant by retro-orbital puncture under CO2/O2 anesthesia.
Triglycerides were measured at T0 and T15 using the multi-parametric analyzer.
Veh/Veh=Vehicle in morning/Vehicle in the afternoon
A300/Veh=metformin, 300 mg/kg in the morning/Vehicle in the afternoon
B100/B100=fenofibrate, 100 mg/kg in the morning/fenofibrate, 100 […]
A300B100/B100=metformin, 300 mg/kg in the morning, and fenofibrate, 100 mg/kg in the morning/fenofibrate, 100 mg/kg in the afternoon
A100/Veh=metformin, 100 mg/kg in the morning/Vehicle in the afternoon […]

SMILES: CC(C)OC(=O)C(C)(C)Oc1ccc(C(=O)c2ccc(Cl)cc2)cc1 [Fenofibrate, fenofibrate]
- Effect on triglycerides level (in words): significantly decreased
